Data as given in article PMC10535880, “Caco-2 Cell Sheet Partially Laminated with HT29-MTX Cells as a Novel In Vitro Model of Gut Epithelium Drug Permeability” (Pharmaceutics, 2023).

Experiments:
in vitro [1] = conditions: human
in vitro [2] = conditions: human, Caco-2
[3] = tested on: Caco-2/HT29-MTX partially laminated model; conditions: 9:1 ratio of Caco-2/HT29-MTX

For `CC(C)NCC(O)COc1ccc(CC(N)=O)cc1` (stereo not drawn) [atenolol], the Papp at 2 h, 200 μM (in vitro [1]) was 510 ± 240 ×10⁻⁶ cm/s, the Papp at 2 h, 200 μM (in vitro [2]) was 270 ± 220 ×10⁻⁶ cm/s and the “Papp compared to that in the Caco-2 monolayer” value [3] was “not significantly different”.
